The results in this text go back to doi:10.1101/2021.07.20.453058 (bioRxiv, 2021).

In this test the target is KaiA1 (Slr0756), GAL4 fusions for yeast two-hybrid (Synechocystis sp. PCC 6803) (UniProt P74644). Kind of test: two-hybrid.

No constants are given. Whether binding was seen depends on the method and setting. Some binding calls cover weakened binding; strength is not graded here. Where a sequence is shown, tags or fusion partners need not be part of it.

B1: KaiA1 (Slr0756), GAL4 fusions for yeast two-hybrid (protein, UniProt P74644 1-299)
chain: MQSPLSLCLFAPEHVAHRLRSIFQGDRHYLSTFQALDDFCAFLEDKPERIDCLLVYYEANSLPVLNRLYEQGRLLPIILLEPSPSALAKTTDEHPTIVYHNAEIHLPESQWSELPTVVDRAIAHYLHLGPICTLPNQTETIPAPIVDESSQSFLLLQQRRLADKLKERLGYLGVYYKRKPSHFYRNFSPQEKQEYLEDLSSQYREIILSYFSDEGTVNDLLDQFVNQAFFADLAISQILEIHMELMDEFSQHLKLEGRSEEVLLDYRLVLIDILAHLGEMYRRSIPREDIPFDVYYQTD
For B1, the binding entry is “binds”.
